Data published in patent US20260256792A1, “TREATMENT OF CHRONIC SPONTANEOUS URTICARIA BY ADMINISTERING (R)-2-[3-[4-AMINO-3-(2-FLUORO-4-PHENOXY-PHENYL)PYRAZOLO[3,4-D]PYRIMIDIN-1-YL]PIPERIDINE-1-CARBONYL]-4-METHYL-4-[4-(OXETAN-3-YL)PIPERAZIN-1-YL]PENT-2-ENENITRILE” (priority 2023, published 2026).
Further values from the same series stand in other lists.

System: moderate-to-severe chronic spontaneous urticaria (CSU)
Experiment: Phase 2 CSU study: itch severity score over 7 days (ISS7)
Format: in vivo, human
Settings: for Change from Baseline in ISS7 at Week 12, LS Mean Diff vs. placebo / Change from Baseline in ISS7 at Week 12, Mean / Change from Baseline in ISS7 at Week 12, LS Mean: 400 mg TID, Omalizumab-naïve population; for ISS7 % Change difference for rilzabrutinib vs. placebo LS Mean (95% CI) / ISS7 % Change from baseline LS Mean (SE) / ISS7 Change difference for rilzabrutinib vs. placebo LS Mean (95% CI) / ISS7 Change from baseline LS Mean (SE): Omalizumab-Naïve, outlier removed
From the text: The study comprises a 12 week, randomized, double-blind, placebo-controlled, multi-center, dose-ranging efficacy and safety phase, followed by a 40 week open label extension (OLE) phase (see FIG. 1). The study consists of three phases and an optional OLE phase. […] Clinically, CSU is characterized by the spontaneous and recurrent appearance of pruritic hives. The proposed primary endpoints were the UAS7 at Week 12 in EU and EU reference countries and the ISS7 in the US. Regardless of where a participant was from, all assessments were the same. The UAS7 score is a composite score containing both the HSS7 and the ISS7. This allowed a global assessment of the two key components of urticaria: hives and itch. […] The UAS is a validated PRO measure. […] The daily UAS scores range from 0 to 6 point/day. […] Patients were to complete the UAS using the e-diary. […] The following secondary endpoints were to be analyzed using the same approach as for the primary endpoint: • Change from baseline in UAS7 at Week 4 • Change from baseline in UAS7 at Week 12 (for US and US reference countries) • Change from baseline in ISS7 at Week 12 (except US and US reference countries) • Change from baseline in HSS7 at Week 12

[1] = Baseline weight (kg) ≥72.9 (Median)

CC(C)(C=C(C#N)C(=O)N1CCC[C@@H](n2nc(-c3ccc(Oc4ccccc4)cc3F)c3c(N)ncnc32)C1)N1CCN(C2COC2)CC1 [rilzabrutinib, (R)-2-[3-[4-amino-3-(2-fluoro-4-phenoxy-phenyl)pyrazolo[3,4-d]pyrimidin-1-yl]piperidine-1-carbonyl]-4-methyl-4-[4-(oxetan-3-yl)piperazin-1-yl]pent-2-enenitrile]
Change from Baseline in ISS7 at Week 12, LS Mean Diff vs. placebo [1]: −4.15 | Change from Baseline in ISS7 at Week 12, Mean [1]: −9.44 | Change from Baseline in ISS7 at Week 12, LS Mean (Baseline weight (kg) ≥90): −10.90 | Change from Baseline in ISS7 at Week 12, LS Mean Diff vs. placebo (Baseline weight (kg) ≥90): −5.76 | Change from Baseline in ISS7 at Week 12, Mean (Baseline weight (kg) ≥90): −9.89 | Change from Baseline in ISS7 at Week 12, LS Mean (Gender Female): −9.80 | Change from Baseline in ISS7 at Week 12, LS Mean Diff vs. placebo (Gender Female): −3.50 | Change from Baseline in ISS7 at Week 12, Mean (Gender Female): −10.96 | Change from Baseline in ISS7 at Week 12, LS Mean (Gender Male): −6.50 | Change from Baseline in ISS7 at Week 12, LS Mean Diff vs. placebo (Gender Male): −2.95 | ISS7 % Change difference for rilzabrutinib vs. placebo LS Mean (95% CI) (400 mg BID, Week 1): −23.81 (−42.23, −5.39) % | ISS7 % Change from baseline LS Mean (SE) (400 mg BID, Week 1): −34.00 (5.73) % | ISS7 Change difference for rilzabrutinib vs. placebo LS Mean (95% CI) (400 mg BID, Week 1): −3.14 (−5.82, −0.46) | ISS7 Change from baseline LS Mean (SE) (400 mg BID, Week 1): −5.10 (0.83) | ISS7 % Change difference for rilzabrutinib vs. placebo LS Mean (95% CI) (400 mg BID, Week 2): −17.64 (−32.37, −2.92) % | ISS7 % Change from baseline LS Mean (SE) (400 mg BID, Week 2): −36.28 (5.56) % | ISS7 Change difference for rilzabrutinib vs. placebo LS Mean (95% CI) (400 mg BID, Week 2): −2.27 (−4.47, −0.08) | ISS7 Change from baseline LS Mean (SE) (400 mg BID, Week 2): −5.52 (0.83) | ISS7 % Change difference for rilzabrutinib vs. placebo LS Mean (95% CI) (400 mg BID, Week 3): −20.18 (−35.09, −5.26) % | ISS7 % Change from baseline LS Mean (SE) (400 mg BID, Week 3): −41.02 (5.61) % | ISS7 Change difference for rilzabrutinib vs. placebo LS Mean (95% CI) (400 mg BID, Week 3): −2.87 (−5.12, −0.61) | ISS7 Change from baseline LS Mean (SE) (400 mg BID, Week 3): −6.51 (0.85) | ISS7 % Change difference for rilzabrutinib vs. placebo LS Mean (95% CI) (400 mg BID, Week 4): −20.20 (−36.06, −4.35) % | ISS7 % Change from baseline LS Mean (SE) (400 mg BID, Week 4): −43.56 (5.98) % | ISS7 Change difference for rilzabrutinib vs. placebo LS Mean (95% CI) (400 mg BID, Week 4): −2.86 (−5.26, −0.46) | ISS7 Change from baseline LS Mean (SE) (400 mg BID, Week 4): −6.96 (0.91) | ISS7 % Change difference for rilzabrutinib vs. placebo LS Mean (95% CI) (400 mg BID, Week 5): −8.21 (−23.48, 7.06) % | ISS7 % Change from baseline LS Mean (SE) (400 mg BID, Week 5): −42.26 (5.73) % | ISS7 Change difference for rilzabrutinib vs. placebo LS Mean (95% CI) (400 mg BID, Week 5): −0.91 (−3.31, 1.48) | ISS7 Change from baseline LS Mean (SE) (400 mg BID, Week 5): −6.55 (0.90) | ISS7 % Change difference for rilzabrutinib vs. placebo LS Mean (95% CI) (400 mg BID, Week 6): −13.16 (−29.74, 3.43) % | ISS7 % Change from baseline LS Mean (SE) (400 mg BID, Week 6): −41.38 (6.22) % | ISS7 Change difference for rilzabrutinib vs. placebo LS Mean (95% CI) (400 mg BID, Week 6): −1.72 (−4.30, 0.87) | ISS7 Change from baseline LS Mean (SE) (400 mg BID, Week 6): −6.56 (0.97) | ISS7 % Change difference for rilzabrutinib vs. placebo LS Mean (95% CI) (400 mg BID, Week 7): −17.21 (−33.40, −1.02) % | ISS7 % Change from baseline LS Mean (SE) (400 mg BID, Week 7): −47.03 (6.06) % | ISS7 Change difference for rilzabrutinib vs. placebo LS Mean (95% CI) (400 mg BID, Week 7): −2.36 (−4.85, 0.14) | ISS7 Change from baseline LS Mean (SE) (400 mg BID, Week 7): −7.50 (0.93) | ISS7 % Change difference for rilzabrutinib vs. placebo LS Mean (95% CI) (400 mg BID, Week 8): −20.13 (−37.11, −3.16) % | ISS7 % Change from baseline LS Mean (SE) (400 mg BID, Week 8): −52.28 (6.33) % | ISS7 Change difference for rilzabrutinib vs. placebo LS Mean (95% CI) (400 mg BID, Week 8): −2.73 (−5.33, −0.13) | ISS7 Change from baseline LS Mean (SE) (400 mg BID, Week 8): −8.18 (0.97) | ISS7 % Change difference for rilzabrutinib vs. placebo LS Mean (95% CI) (400 mg BID, Week 9): −21.48 (−38.50, −4.47) % | ISS7 % Change from baseline LS Mean (SE) (400 mg BID, Week 9): −51.40 (6.37) % | ISS7 Change difference for rilzabrutinib vs. placebo LS Mean (95% CI) (400 mg BID, Week 9): −2.86 (−5.51, −0.21) | ISS7 Change from baseline LS Mean (SE) (400 mg BID, Week 9): −7.98 (0.99) | ISS7 % Change difference for rilzabrutinib vs. placebo LS Mean (95% CI) (400 mg BID, Week 10): −13.98 (−31.91, 3.95) % | ISS7 % Change from baseline LS Mean (SE) (400 mg BID, Week 10): −49.04 (6.78) % | ISS7 Change difference for rilzabrutinib vs. placebo LS Mean (95% CI) (400 mg BID, Week 10): −2.19 (−4.95, 0.57) | ISS7 Change from baseline LS Mean (SE) (400 mg BID, Week 10): −7.86 (1.04) | ISS7 % Change difference for rilzabrutinib vs. placebo LS Mean (95% CI) (400 mg BID, Week 11): −17.79 (−35.67, 0.10) % | ISS7 % Change from baseline LS Mean (SE) (400 mg BID, Week 11): −49.26 (6.74) % | ISS7 Change difference for rilzabrutinib vs. placebo LS Mean (95% CI) (400 mg BID, Week 11): −2.38 (−5.10, 0.33) | ISS7 Change from baseline LS Mean (SE) (400 mg BID, Week 11): −7.71 (1.02) | ISS7 % Change difference for rilzabrutinib vs. placebo LS Mean (95% CI) (400 mg BID, Week 12): −14.72 (−32.82, 3.38) % | ISS7 % Change from baseline LS Mean (SE) (400 mg BID, Week 12): −49.36 (6.89) % | ISS7 Change difference for rilzabrutinib vs. placebo LS Mean (95% CI) (400 mg BID, Week 12): −2.05 (−4.84, 0.74) | ISS7 Change from baseline LS Mean (SE) (400 mg BID, Week 12): −7.76 (1.06) | ISS7 % Change difference for rilzabrutinib vs. placebo LS Mean (95% CI) (400 mg QPM, Week 1): −8.32 (−26.56, 9.93) % | ISS7 % Change from baseline LS Mean (SE) (400 mg QPM, Week 1): −18.50 (5.54) % | ISS7 Change difference for rilzabrutinib vs. placebo LS Mean (95% CI) (400 mg QPM, Week 1): −1.34 (−3.99, 1.31) | ISS7 Change from baseline LS Mean (SE) (400 mg QPM, Week 1): −3.30 (0.81) | ISS7 % Change difference for rilzabrutinib vs. placebo LS Mean (95% CI) (400 mg QPM, Week 2): −5.38 (−19.96, 9.19) % | ISS7 % Change from baseline LS Mean (SE) (400 mg QPM, Week 2): −24.02 (5.36) % | ISS7 Change difference for rilzabrutinib vs. placebo LS Mean (95% CI) (400 mg QPM, Week 2): −0.80 (−2.97, 1.37) | ISS7 Change from baseline LS Mean (SE) (400 mg QPM, Week 2): −4.05 (0.80) | ISS7 % Change difference for rilzabrutinib vs. placebo LS Mean (95% CI) (400 mg QPM, Week 3): −8.25 (−23.04, 6.55) % | ISS7 % Change from baseline LS Mean (SE) (400 mg QPM, Week 3): −29.09 (5.42) % | ISS7 Change difference for rilzabrutinib vs. placebo LS Mean (95% CI) (400 mg QPM, Week 3): −1.30 (−3.54, 0.94) | ISS7 Change from baseline LS Mean (SE) (400 mg QPM, Week 3): −4.94 (0.82) | ISS7 % Change difference for rilzabrutinib vs. placebo LS Mean (95% CI) (400 mg QPM, Week 4): −6.69 (−22.35, 8.98) % | ISS7 % Change from baseline LS Mean (SE) (400 mg QPM, Week 4): −30.05 (5.74) % | ISS7 Change from baseline LS Mean (SE) (400 mg QPM, Week 4): −5.14 (0.87) | ISS7 % Change difference for rilzabrutinib vs. placebo LS Mean (95% CI) (400 mg QPM, Week 5): 1.87 (−13.30, 17.05) % | ISS7 % Change from baseline LS Mean (SE) (400 mg QPM, Week 5): −32.18 (5.54) % | ISS7 Change difference for rilzabrutinib vs. placebo LS Mean (95% CI) (400 mg QPM, Week 5): 0.20 (−2.17, 2.58) | ISS7 Change from baseline LS Mean (SE) (400 mg QPM, Week 5): −5.44 (0.87) | ISS7 % Change difference for rilzabrutinib vs. placebo LS Mean (95% CI) (400 mg QPM, Week 6): −8.22 (−24.84, 8.40) % | ISS7 % Change from baseline LS Mean (SE) (400 mg QPM, Week 6): −36.45 (6.05) %
